Source: PMC7588595, “Small-molecule active pharmaceutical ingredients of approved cancer therapeutics inhibit human aspartate/asparagine-β-hydroxylase” (Bioorganic & Medicinal Chemistry, 2020)

Target: T1, human AspH (His6-AspH315–758) (Homo sapiens, UniProt Q12797)
T1 construct: N-Terminally His6-tagged human AspH315–758 (His6-AspH315–758) was produced in Escherichia coli BL21 (DE3) cells; made in house; host or cells: Escherichia coli BL21 (DE3), pET-28a(+) vector
T1 sequence (Q12797 315-758): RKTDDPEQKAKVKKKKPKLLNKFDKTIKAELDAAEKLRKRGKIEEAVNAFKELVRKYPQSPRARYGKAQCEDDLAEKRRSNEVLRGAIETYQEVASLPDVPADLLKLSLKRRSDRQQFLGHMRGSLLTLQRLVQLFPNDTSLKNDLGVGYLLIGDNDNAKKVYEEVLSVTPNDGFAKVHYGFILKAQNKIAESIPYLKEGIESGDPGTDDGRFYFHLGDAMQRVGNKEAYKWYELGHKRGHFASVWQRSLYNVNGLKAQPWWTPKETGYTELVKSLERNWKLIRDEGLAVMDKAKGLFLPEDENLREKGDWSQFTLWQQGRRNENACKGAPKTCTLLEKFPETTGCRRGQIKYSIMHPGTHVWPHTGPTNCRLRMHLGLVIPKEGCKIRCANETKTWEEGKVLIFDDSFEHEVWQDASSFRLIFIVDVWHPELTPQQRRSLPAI
Assay: SPE-MS AspH inhibition assay (hFX-CP101-119 substrate hydroxylation)
Assay type: biochemical

CC(C)c1c(C(=O)Nc2ccccc2)c(-c2ccccc2)c(-c2ccc(F)cc2)n1CC[C@@H](O)C[C@@H](O)CC(=O)[O-].CC(C)c1c(C(=O)Nc2ccccc2)c(-c2ccccc2)c(-c2ccc(F)cc2)n1CC[C@@H](O)C[C@@H](O)CC(=O)[O-].[Ca+2] [Atorvastatin Ca]
Plate 1 (% conversion): 49.56% | Plate 1-duplicate (% conversion): 52.95%
